The labels stand for the following.
T1: importin β (UniProt Q06142 1-861)
T1 construct: Nuclear transport receptor used at 5 µM in the capillary transport assay; The His tag was not removed; TEV cleavage is told only for the two cargo proteins; also called scImpβ; scImp β; not shown: 6xHis tag (scImpβ-His6)
T1 sequence (looked up): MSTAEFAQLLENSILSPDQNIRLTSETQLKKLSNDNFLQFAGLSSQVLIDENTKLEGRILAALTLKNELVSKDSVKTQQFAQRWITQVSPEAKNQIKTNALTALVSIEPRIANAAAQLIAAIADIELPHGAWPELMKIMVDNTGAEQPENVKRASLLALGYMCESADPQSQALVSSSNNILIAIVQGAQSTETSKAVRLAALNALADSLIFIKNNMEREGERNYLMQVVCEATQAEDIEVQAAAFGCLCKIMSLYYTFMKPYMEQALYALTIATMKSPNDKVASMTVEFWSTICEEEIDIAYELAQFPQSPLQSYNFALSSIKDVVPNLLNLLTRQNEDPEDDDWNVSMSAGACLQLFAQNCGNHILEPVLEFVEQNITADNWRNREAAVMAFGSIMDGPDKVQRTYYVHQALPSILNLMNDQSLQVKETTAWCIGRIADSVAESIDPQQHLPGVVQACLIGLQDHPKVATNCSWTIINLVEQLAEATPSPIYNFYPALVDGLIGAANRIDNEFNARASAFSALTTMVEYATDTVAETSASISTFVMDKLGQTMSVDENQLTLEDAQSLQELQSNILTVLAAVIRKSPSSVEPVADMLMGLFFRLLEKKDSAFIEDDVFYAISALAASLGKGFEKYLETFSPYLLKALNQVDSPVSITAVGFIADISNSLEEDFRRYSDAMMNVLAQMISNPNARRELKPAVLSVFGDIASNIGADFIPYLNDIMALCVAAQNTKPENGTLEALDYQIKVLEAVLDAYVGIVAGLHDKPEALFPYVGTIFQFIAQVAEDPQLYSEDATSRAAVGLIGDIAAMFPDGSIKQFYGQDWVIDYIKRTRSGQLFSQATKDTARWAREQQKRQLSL

B1: P-2NLP-P (other)
chain: MDIGINSDPAPQMLRELQETNAALQDVRELLRQQVKEITFLKNTVMESDASGASPAFSFGAKPDEKKDSDTSKPAFSFGAKPDEKKDSDTSKPAFSFGAKPDEKKDSDTSKPAFSFGAKPDEKKDSDTSKPAFSFGAKPDEKKDSDTSKPAFSFGAKPDEKKDSDTSKPAFSFGAKPDEKKDSDTSKPAFSFGAKPDEKKDSDTSKTSPAFSFGAKPDEKKDSDTSKPAFSFGAKPDEKKDSDTSKPAFSFGAKPDEKKDSDTSKPAFSFGAKPDEKKDSDTSKPAFSFGAKPDEKKDSDTSKPAFSFGAKPDEKKDSDTSKPAFSFGAKPDEKKDSDTSKPAFSFGAKPDEKKDSDTSKTSAPQMLRELQETNAALQDVRELLRQQVKEITFLKNTVMESDASGGKLAAALEHHHHHH
B2: P-cNsp1-P (other)
chain: MDIGINSDPAPQMLRELQETNAALQDVRELLRQQVKEITFLKNTVMESDASGASDNKTTNTTPSFSFGAKSDENKAGATSKPAFSFGAKPEEKKDDNSSKPAFSFGAKSNEDKQDGTAKPAFSFGAKPAEKNNNETSKPAFSFGAKSDEKKDGDASKPAFSFGAKPDENKASATSKPAFSFGAKPEEKKDDNSSKPAFSFGAKSNEDKQDGTAKPAFSFGAKPAEKNNNETSKPAFSFGAKSDEKKDGDASKPAFSFGAKSDEKKDSDSSKPAFSFGTKSNEKKDSGSSKPAFSFGAKPDEKKNDEVSKPAFSFGAKANEKKESDESKSAFSFGSKPTGKEEGDGAKAAISFGAKPEEQKSSDTSKPAFTFGTSAPQMLRELQETNAALQDVRELLRQQVKEITFLKNTVMESDASGKLAAALEHHHHHH
notes: Used as a 20 w/v % hydrogel crosslinked by pentameric association of the P domains; also called P-cNsp1-P-His6; P-cNspI-P
B3: P-1NLP-P (other)
chain: MDIGINSDPAPQMLRELQETNAALQDVRELLRQQVKEITFLKNTVMESDASGASPAFSFGAKPDEKKDDDTSKPAFSFGAKPDEKKDDDTSKPAFSFGAKPDEKKDDDTSKPAFSFGAKPDEKKDDDTSKPAFSFGAKPDEKKDDDTSKPAFSFGAKPDEKKDDDTSKPAFSFGAKPDEKKDDDTSKPAFSFGAKPDEKKDDDTSKTSPAFSFGAKPDEKKDDDTSKPAFSFGAKPDEKKDDDTSKPAFSFGAKPDEKKDDDTSKPAFSFGAKPDEKKDDDTSKPAFSFGAKPDEKKDDDTSKPAFSFGAKPDEKKDDDTSKPAFSFGAKPDEKKDDDTSKPAFSFGAKPDEKKDDDTSKTSAPQMLRELQETNAALQDVRELLRQQVKEITFLKNTVMESDASGGKLAAALEHHHHHH
notes: Used as a 20 w/v % hydrogel

The target of this experiment is T1, importin β. Kind of experiment: capillary transport assay, discontinuous concentration profile at the gel/buffer interface, 20 w/v % hydrogel. The procedure: 1.5 inch borosilicate capillaries with 0.9 mm inner diameters (Vitrocom 8290) were loaded by piercing pre-made hydrogels. 5 μM solutions of IBB-MBP-EGFP, MBP-mCherry, and/or importin β were injected into the capillary and sealed by a 1:1:1 mixture of vaseline, lanolin, and paraffin. Time lapses of cargo transport into the hydrogels were taken at 1 minute intervals for 1-3 hours on a Nikon Ti Eclipse inverted microscope using a Nikon CFI Plan UW 2× and Hamamatsu C11440-22CU camera. All fluorescence intensity profiles were obtained by averaging the fluorescence intensity within 100 μm slice width through the center of the gel and across the gel/buffer interface. The profiles were normalized by the bath concentration in the capillaries at the first time point. The interface between gel and buffer is assigned by a 20% change in the intensity compared to the bath fluorescence intensity as the zero point of the distance scale in each fluorescence intensity profile.
On to B1, for which the binding result was “binds”. For the molecule B2, the binding result is “binds”.

Take B3: the binding result is listed as “binds”.

The values are drawn from patent US20170304457A1 (MIT, published 2017).
